# Test results: PubChem BioAssay AID720504 (National Center for Advancing Translational Sciences (NCATS), 2013)
# Amino acid sequences for entries named in this document (tags omitted).
# UniProt P53350, whole entry, looked up: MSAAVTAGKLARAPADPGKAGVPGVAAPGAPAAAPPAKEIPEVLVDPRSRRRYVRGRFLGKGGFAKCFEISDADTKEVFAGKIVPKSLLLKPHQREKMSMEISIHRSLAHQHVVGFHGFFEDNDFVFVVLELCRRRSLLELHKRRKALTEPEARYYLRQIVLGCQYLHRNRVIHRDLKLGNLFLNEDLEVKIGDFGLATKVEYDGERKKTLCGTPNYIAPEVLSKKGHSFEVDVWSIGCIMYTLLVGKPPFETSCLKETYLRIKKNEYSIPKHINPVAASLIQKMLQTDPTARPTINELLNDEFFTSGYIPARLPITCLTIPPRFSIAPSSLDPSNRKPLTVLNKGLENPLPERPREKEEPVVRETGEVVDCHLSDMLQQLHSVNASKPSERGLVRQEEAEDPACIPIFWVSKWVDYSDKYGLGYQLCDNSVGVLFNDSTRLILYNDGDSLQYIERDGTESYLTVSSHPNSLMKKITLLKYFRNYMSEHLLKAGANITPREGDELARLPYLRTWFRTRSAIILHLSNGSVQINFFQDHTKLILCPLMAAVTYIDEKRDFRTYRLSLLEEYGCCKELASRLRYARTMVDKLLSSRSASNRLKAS
# The campaign covered roughly 360,000 compounds. About 10,000 (2.8%) were called active. Inconclusive means that the source gave no clear call. Such entries were picked first, then a sample of the others. Calls follow the shape of the dose curve; as a rule, active = well fitted inhibition curve with a large enough effect; inconclusive = small, poorly fitted or top-dose-only effect; inactive = flat fitted curve, though single readings scatter. Potencies of inconclusive entries are doubtful fits and often do not repeat.
# Molecular target: Serine/threonine-protein kinase PLK1 (Homo sapiens) (UniProt P53350)
# Assay: qHTS for Inhibitors of PLK1-PDB (polo-like kinase 1 - polo-box domain): Primary Screen; also: nearly all actives have a fitted effect of over 65% in size; as to max response, negative = inhibition: series mostly up to about 57 µM
# Conditions: Plk1 PBD binding of FITC phosphopeptide, fluorescence polarization
# % is scaled to controls: 0 for no effect and ±100 for the full control effect; potency is read from the fitted curve at half-maximal effect.
Compound,Potency,"max response, negative = inhibition"
CCNC(=O)NC(=O)C(C)Sc1ccc2c(c1)OCCO2 (stereo unspecified),"inconclusive: 29.9 µM [inhibitor, single point]",–
CN(c1ccccc1)S(=O)(=O)c1cccc(NC(=O)C2=NNC(=O)CC2)c1,–,inactive: -10%
CCc1ccc(OCC(=O)N2CCc3ccccc32)cc1,–,inactive: -5.9%
CC(C)C[C@@H](CN1CCC[C@@H]1CN1C(=S)NC[C@@H]1Cc1ccc(O)cc1)N1C[C@H](Cc2ccc(O)cc2)N(CCc2ccccc2)C1=S,–,inactive: -8.82%
COc1ccc(C(=O)N/C(=C\c2cn(C)c3ccccc23)C(=O)OCCN(C)C)cc1,–,inactive: 4.17%
O=C(O)c1cccc(S(=O)(=O)Nc2ccc3oc(=O)sc3c2)c1,"inconclusive: 29.9 µM [inhibitor, partial curve]",–
c1ccc(CNc2c(C3CCNCC3)nc3scc(-c4ccccc4)n23)cc1,–,inconclusive: -32.3% [inhibitor]
CCCCOC(=S)NC(=O)c1sc2ccccc2c1Cl,"inconclusive: 21.2 µM [inhibitor, partial curve, poor fit]",–
COc1ccc(CNC(=O)CCS(=O)(=O)c2ccc(Br)cc2)cc1,"inconclusive: 26.7 µM [inhibitor, single point]",–
O=C(N/N=C/c1cn[nH]c1-c1ccc(Cl)cc1)c1ccc([N+](=O)[O-])cc1,–,inactive: -0.416%
CCCCCCCCOC1OC(CO)C(O)C(O)C1NC(C)=O (stereo unspecified),"inconclusive: 23.8 µM [inhibitor, single point]",–
Cc1c(C(N)=O)sc(N)c1C(=O)OC(C)C,"inconclusive: 26.7 µM [inhibitor, partial curve]",–
CCN(CC)C(=O)Cn1cc(C(=O)C(=O)NCC2COc3ccccc3O2)c2ccccc21 (stereo unspecified),"inconclusive: 23.8 µM [inhibitor, single point]",–
Cc1csc(C(C)NC(=O)c2ccc(OC3CCN(CCc4ccccc4)CC3)cc2)n1 (stereo unspecified),active: 29.9 µM,–
CCCC(c1nnnn1C(C)(C)CC)N(Cc1ccco1)Cc1cc2ccc(OC)cc2[nH]c1=O (stereo unspecified),–,inactive: -0.543%
COCC(=O)Nc1nnc(-c2cccs2)s1,–,inconclusive: -30.9% [inhibitor]
Cc1cccc2sc(N(CCCN(C)C)C(=O)CCc3ccccc3)nc12,–,inactive: -0.458%
COc1ccc(C(=O)NC(=S)Nc2cc(C)ccn2)cc1[N+](=O)[O-],–,inactive: -0.733%
CC(C)(C)c1ccc(O)c(N=Cc2cc3c(cc2[N+](=O)[O-])OCO3)c1,active: 26.7 µM,–
CCC(=O)c1ccc(OCC(=O)c2ccc3c(c2)NC(=O)CO3)cc1,"inconclusive: 16.8 µM [inhibitor, partial curve, poor fit]",–
COc1cccc2c1C(=O)c1c(O)c3c(c(O)c1C2=O)C[C@@](O)(C(=O)CO)C[C@@H]3O[C@H]1C[C@H](N)[C@@H](O)[C@H](C)O1,"inconclusive: 21.2 µM [inhibitor, partial curve]",–
O=C(CSCc1ccccc1)Nc1cccc(C(=O)Nc2ccccc2C(=O)O)c1,"inconclusive: 33.6 µM [inhibitor, single point]",–
CCCCc1ccc(CC(=O)O)cc1,active: 29.9 µM,–

Compound,Potency,"max response, negative = inhibition"
COc1ccc(C(=O)NCc2nnc(SCC(=O)N3CCCC3)o2)cc1,–,inactive: -6.7%
CN(CC(=O)Nc1n[nH]c(=S)s1)S(=O)(=O)c1cccc2cccnc12,active: 29.9 µM,–
Oc1ccc(/C=N/n2c(C3CCCCC3)n[nH]c2=S)c(O)c1,–,inconclusive: -30.6% [inhibitor]
O=C(NCCc1ccccc1)N1c2ccccc2Sc2ccccc21,active: 23.8 µM,–
O=C(NC12CC3CC(CC(C3)C1)C2)c1cc(F)c(F)cc1Cl,"inconclusive: 26.7 µM [inhibitor, partial curve]",–
Cn1c(SCC(=O)c2ccccc2)nnc1-c1ccc(O)cc1,–,inactive: -7.59%
Cc1ccc(Cl)c(NC(=O)CN(C)CC(=O)Nc2ccc(F)c(F)c2F)c1Cl,"inconclusive: 21.2 µM [inhibitor, single point]",–
Cc1ccc2cc3c(N)c4c(C)ccc(C)c4nc3nc2c1,"inconclusive: 15 µM [inhibitor, partial curve]",–
Cc1cc(-n2c(C)cc(C(=O)CSc3nncn3C(C)C)c2C)no1,–,inactive: -6.48%
O=C(CSc1n[nH]c(-c2cccnc2)n1)Nc1ccnc2ccccc12,–,inactive: -8.72%
Cc1nn(-c2ccccc2)c2[nH]c(=O)c(CNc3ccc(N4CCOCC4)cc3)cc12,active: 2.99 µM,–
COC(=O)COc1ccc(/C=C2/SC(=O)N(CC(=O)N3CCCC3)C2=O)cc1Br,–,inactive: -3.61%
Oc1ccc(/C=N/N=C(c2ccccc2)c2ccccc2)c(O)c1O,active: 11.9 µM,–
CCOc1cc(C)ccc1OCc1nnc(SCC(=O)c2cccc([N+](=O)[O-])c2)n1CC,–,inconclusive: -30.2% [inhibitor]
Cc1ccc(S(=O)(=O)N2[C@@H](c3cccc(Cl)c3)C(C(=O)OC(C)(C)C)=CC[C@H]2c2ccc(C(C)C)cc2)cc1,–,inactive: -2.96%
COc1ccc(S(=O)(=O)Nc2ncccc2C)c2ccccc12,–,inactive: -5.36%
Cc1nn(Cc2ccccc2)c2c1C(c1ccccc1)C(C#N)=C(N)O2 (stereo unspecified),"inconclusive: 26.7 µM [inhibitor, partial curve]",–
COc1ccc(O)c(C(=O)c2cc(SCC(=O)O)c3nc4sc5c(c4c(=O)n3c2)CCCC5)c1,active: 26.7 µM,–
COc1ccc(NC(=O)C2CCCN(S(=O)(=O)c3c(C)[nH]c(=O)[nH]c3=O)C2)cc1OC (stereo unspecified),–,inconclusive: -31.5% [inhibitor]
O=c1c2ccccc2nc(N/N=C/c2c(O)ccc3ccccc23)n1O,active: 29.9 µM,–
CN(CC(=O)Nc1cccc(F)c1)C(=O)c1cccc(-n2cccc2)c1,"inconclusive: 21.2 µM [inhibitor, single point]",–
O=C(NNC(=O)c1cc2ccccc2oc1=O)c1ccccc1,"inconclusive: 26.7 µM [inhibitor, partial curve]",–
CCCN(CCC)C(=O)c1ccc2c(=O)n(Cc3ccco3)c(=S)[nH]c2c1,–,inactive: -8.54%

# Some of the entries so far, as tab-separated lines:
Compound	Potency	max response, negative = inhibition
O=C(CSCc1ccccc1)Nc1cccc(C(=O)Nc2ccccc2C(=O)O)c1	inconclusive: 33.6 µM [inhibitor, single point]	–
CCCCc1ccc(CC(=O)O)cc1	active: 29.9 µM	–
COc1ccc(C(=O)NCc2nnc(SCC(=O)N3CCCC3)o2)cc1	–	inactive: -6.7%
CN(CC(=O)Nc1n[nH]c(=S)s1)S(=O)(=O)c1cccc2cccnc12	active: 29.9 µM	–
